For experiment [1], the target named is HLA-A0201 (human). Briefly: told in words in Example 13; rests on ELISPOT with peptide-pulsed T2 cells, no direct binding assay.
The next experiment addresses HLA-A24 (human). The experiment can be described thus: told in words in Example 11; no direct binding assay described there.
For experiment [2], the target named is HLA-A0201 (human). Briefly: told in words in Example 13; no direct binding assay.

Results are given in words; binding and its absence hold for the method and conditions named. Binding can be weak; no strength is given.

As to AMFFWLLLV [peptide of SEQ ID NO:29 (KDR775)], in the experiment with HLA-A0201 (human) [1], the binding result is given as “binds”.

Consider KLIEIGVQT [peptide of SEQ ID NO:34 (KDR1328)], for which, in the experiment with HLA-A0201 (human) [1], the binding result is on record as “binds”.

With YMISYAGMV [peptide of SEQ ID NO:40 (amino acid initiation position KDR190)], in the experiment with HLA-A0201 (human) [1], the binding entry was “binds”.

As for RFVPDGNRI [peptide of SEQ ID NO:8 (amino acid initiation position KDR169)], the binding result with HLA-A24 (human) is on record as “binds”.

In the case of VLAMFFWLL [KDR773-2L peptide (SEQ ID NO:54)], in the experiment with HLA-A0201 (human) [2], the binding result is given as “binds”.

On to AVIAMFFWL [peptide of SEQ ID NO:33 (KDR772)], for which the binding entry in the experiment with HLA-A0201 (human) [1] was “binds”.

The record behind these values is patent US20120328636A1.
